According to patent US6495663B1 (The Board of Trustees of the Leland Stanford Junior …, priority 1997, dated 2002):

Assay: general procedure: Fmoc solid-phase peptide synthesis; Wang resins
Conditions: conjugation step, overall

## N-acetyl-Cys(SH)-Ala-Ala-Ala-(Arg)7—CO2H
  conjugation yield: 50%
